Measurements as given in patent publication US8895522B2, “Composition and method for the prevention, treatment and/or alleviation of an inflammatory disease” (Index Pharmaceuticals AB, priority 2005, dated 2014).
At least one structure is not confirmed: it was looked up by name or label, or the drawing left a doubt.

Legend:
[1] = system: LPS induced airway inflammation in mice; experiment: Second LPS induced asthma study in mice, BALF cell counts; assay type: in vivo; details: SEQ.ID.NO 3 150 μg/animal 18 h before LPS; dexamethasone 5 mg/kg 1 h before LPS; alone or combined
Method: As with example 2, aim of the study was to examine the pharmaceutical effects of SEQ. ID. NO. 3 using airway inflammation as disease endpoint, and to compare the efficacy with that of corticosteroids. This study included larger numbers of animals per group to increases statistical significance. The induction of LPS induced asthma and the protocol of analyses was conducted as described in example 2.
Briefly, mice were treated with an SEQ.ID.NO 3 (150 μg/animal) administered by tracheal instillation 18 h prior to challenge with 5 μg LPS. One group of mice represented healthy untreated individuals. Control mice were given solvent only (H2O) and LPS. One group received dexamethasone (5 mg/kg) one hour before LPS instillation and one group were given a combination treatment. Analysis of BALF was performed 20 hours after the last treatment. Total number of cells in BALF and number of neutrophils is shown. Data is expressed as mean±SD. ***=p<0.001 and **=p<0.01, in treated groups vs the control group (one-way ANOVA and Bonferroni post hoc test). Calculations were performed by SPSS software (12.0). n=6 in all groups.

human PBMC = experiment: IL-10 induction from healthy human PBMC by SEQ.ID.NO 1 after dexamethasone pre-incubation (ELISA); assay type: cell-based; details: dexamethasone pulse for 12 hours, then medium alone for 24 hours
Method: ELISA assays where performed according to the manufactures recommended guidelines (R&D systems). Plates were analyzed using AID ELISpot reader system (Autoimmun Diagnostika GmbH, Strassberg Germany).
For this assay again 500,000 PBMC cells per well, derived from blood from healthy human donors, were incubated for 12 hours in the presence of various concentrations of dexamethasone, after which, the cells were washed and fresh medium as added. The cells were then allowed to further incubate in the presence of either 25 uM or 100 uM of SEQ.ID.NO 1 for an additional 24 hours after which levels of IL-10 were measured using a commercial available IL-10 ELISA kit.

In the case of `C[C@@H]1C[C@H]2[C@@H]3CCC4=CC(=O)C=C[C@]4(C)[C@@]3(F)[C@@H](O)C[C@]2(C)[C@@]1(O)C(=O)CO` [dexamethasone, reference compound], the “reduction / inhibition of total number of infiltrating cells in BAL fluid” value [1] is reported as “somewhat more pronounced” and the IL-10 production (human PBMC) is reported as “little IL-10 production”.
